Laboratory results: PMC11955417
These are yes or no findings as the source states them, for the method shown. In cells and extracts the contact can be indirect. Some results given as binding are weak or reduced against the parent protein; the word gives no strength. For some assays here: Where a sequence is shown, tags or fusion partners need not be part of it.

Sequences of proteins named here, by UniProt entry; tags and fusion partners are left off.
UniProt Q08775: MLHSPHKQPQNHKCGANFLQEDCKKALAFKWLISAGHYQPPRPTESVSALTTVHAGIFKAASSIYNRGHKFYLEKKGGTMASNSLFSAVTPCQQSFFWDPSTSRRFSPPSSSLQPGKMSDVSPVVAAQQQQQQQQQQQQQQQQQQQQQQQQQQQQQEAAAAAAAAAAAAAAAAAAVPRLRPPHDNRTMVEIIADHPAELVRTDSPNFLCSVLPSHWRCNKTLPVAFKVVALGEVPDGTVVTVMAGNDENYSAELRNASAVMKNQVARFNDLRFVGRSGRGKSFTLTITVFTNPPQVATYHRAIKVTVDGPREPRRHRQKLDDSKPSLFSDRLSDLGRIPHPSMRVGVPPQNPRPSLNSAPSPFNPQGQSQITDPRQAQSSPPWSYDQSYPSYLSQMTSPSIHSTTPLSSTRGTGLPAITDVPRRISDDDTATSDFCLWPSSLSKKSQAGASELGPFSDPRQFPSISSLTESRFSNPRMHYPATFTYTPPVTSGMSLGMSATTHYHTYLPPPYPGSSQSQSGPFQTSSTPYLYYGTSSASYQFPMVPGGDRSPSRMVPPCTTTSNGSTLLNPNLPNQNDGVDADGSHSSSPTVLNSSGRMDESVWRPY

Experiments:
[1] = target: runt-related transcription factor 2 (Runx2), endogenous in mouse heart (mouse (endogenous in heart tissue)) (UniProt Q08775); assay: co-IP; endogenous immunoprecipitation from mouse heart tissue lysate with Mib2 or Runx2 antibodies; protein A + G magnetic beads, 4°C overnight, Western blot
[2] = target: HA-Runx2 (full-length Runx2, overexpression plasmid) (UniProt Q08775); assay: co-IP; HEK293T cells transfected with Mib2 and Runx2 overexpression plasmids; lysate incubated with antibody and protein A + G magnetic beads, 4°C overnight, Western blot

Binder | binding [1] | binding [2]
mind bomb E3 ubiquitin protein ligase 2 (Mib2), endogenous in mouse heart (protein, UniProt Q8R516 1-973) MDLDPHAGVQVGMRVVRGMDWKWGQQDGGEGGVGTVVELGRHGSPSTPDRTVVVQWDQGTRTNYRAGYQGAHDLLLYDNAQIGIRHPNIICDCCKKHGLRGMRWKCRVCFDYDLCTQCYMHNKHDLTHAFERYETSHSRPVTLSPRQGLPRIPLRGIFQGAKVVRGPDWEWGSQDGGEGKTGRVVDIRGWDVETGRSVASVTWADGTTNVYRVGHKGKVDLRCVGEAAGGFYYKEHLPKLGKPAELQRRVSADGQPFQRGDKVKCLLDTDVLRDMQEGHGGWNPRMAEFIGQMGTVHRITDRGDVRVQFNHETRWTFHPGALTKHNSFWVGDVVRVIGDLDTVKRLQAGHGEWTDDMAPALGRVGKVVKVFGDGNLRVAVGGQRWTFSPSCLVAYRPEEDANLDVAERARENKSAASVSVAGSLSVALDKLRTQKSDPEHPGRLVVEAALGNVARALDLLRRHPEQASYHPALVVDTKNQGRTALQVAAYLGQVELVRLLLQARASMDLPDDEGNTVLHYTAMGNQPEATRVLLSAGCAVDARNGTRSTALHVAVQRGFLEVVKILCERGCDVNLPDAHADTPLHSAISAGAGASSIVEVLTEVPGIDVTATNSQGFTLLHHASLKGHVLAVRKILARARQLVDAKKEDGFTALHLAALNNHREVAQVLIREGRCDVNVRNRKLQSPLHLAVQQAHLGLVPLLVDAGCSVNTEDEEGDTALHVALQRHQLLPLVADRAGGDPGPLQLLSRLQASGLPGCTELTVGAAVACFLALEGADVSYANHRGRSPLDLATEGRVLKALQGCAQRFRERQAGGGGGVPPGPRHVLSTPNTVTNLHVSGTAGPEAAECLVCSELALLILFSPCQHRTVCEECARRMKKCIRCQVVISKKLRPDGSEVVNAIQVPGPPRQLVEELQSRYRQMEERITCPICIDSHIRLVFQCGHGACAPCGAALNACPICRQPIRDRIQIFV | binds | 
Flag-Mib2 (full-length Mib2, overexpression plasmid) (protein, UniProt Q8R516 1-973) MDLDPHAGVQVGMRVVRGMDWKWGQQDGGEGGVGTVVELGRHGSPSTPDRTVVVQWDQGTRTNYRAGYQGAHDLLLYDNAQIGIRHPNIICDCCKKHGLRGMRWKCRVCFDYDLCTQCYMHNKHDLTHAFERYETSHSRPVTLSPRQGLPRIPLRGIFQGAKVVRGPDWEWGSQDGGEGKTGRVVDIRGWDVETGRSVASVTWADGTTNVYRVGHKGKVDLRCVGEAAGGFYYKEHLPKLGKPAELQRRVSADGQPFQRGDKVKCLLDTDVLRDMQEGHGGWNPRMAEFIGQMGTVHRITDRGDVRVQFNHETRWTFHPGALTKHNSFWVGDVVRVIGDLDTVKRLQAGHGEWTDDMAPALGRVGKVVKVFGDGNLRVAVGGQRWTFSPSCLVAYRPEEDANLDVAERARENKSAASVSVAGSLSVALDKLRTQKSDPEHPGRLVVEAALGNVARALDLLRRHPEQASYHPALVVDTKNQGRTALQVAAYLGQVELVRLLLQARASMDLPDDEGNTVLHYTAMGNQPEATRVLLSAGCAVDARNGTRSTALHVAVQRGFLEVVKILCERGCDVNLPDAHADTPLHSAISAGAGASSIVEVLTEVPGIDVTATNSQGFTLLHHASLKGHVLAVRKILARARQLVDAKKEDGFTALHLAALNNHREVAQVLIREGRCDVNVRNRKLQSPLHLAVQQAHLGLVPLLVDAGCSVNTEDEEGDTALHVALQRHQLLPLVADRAGGDPGPLQLLSRLQASGLPGCTELTVGAAVACFLALEGADVSYANHRGRSPLDLATEGRVLKALQGCAQRFRERQAGGGGGVPPGPRHVLSTPNTVTNLHVSGTAGPEAAECLVCSELALLILFSPCQHRTVCEECARRMKKCIRCQVVISKKLRPDGSEVVNAIQVPGPPRQLVEELQSRYRQMEERITCPICIDSHIRLVFQCGHGACAPCGAALNACPICRQPIRDRIQIFV |  | binds
